From paper PMC7672464
Results are given in words; binding and its absence hold for the method and conditions named. In cells and extracts the contact can be indirect. Some entries that bind do so weakly or less than the wild type.

Chains of the proteins cited; added tags and fusions are not shown.
UniProt P26599: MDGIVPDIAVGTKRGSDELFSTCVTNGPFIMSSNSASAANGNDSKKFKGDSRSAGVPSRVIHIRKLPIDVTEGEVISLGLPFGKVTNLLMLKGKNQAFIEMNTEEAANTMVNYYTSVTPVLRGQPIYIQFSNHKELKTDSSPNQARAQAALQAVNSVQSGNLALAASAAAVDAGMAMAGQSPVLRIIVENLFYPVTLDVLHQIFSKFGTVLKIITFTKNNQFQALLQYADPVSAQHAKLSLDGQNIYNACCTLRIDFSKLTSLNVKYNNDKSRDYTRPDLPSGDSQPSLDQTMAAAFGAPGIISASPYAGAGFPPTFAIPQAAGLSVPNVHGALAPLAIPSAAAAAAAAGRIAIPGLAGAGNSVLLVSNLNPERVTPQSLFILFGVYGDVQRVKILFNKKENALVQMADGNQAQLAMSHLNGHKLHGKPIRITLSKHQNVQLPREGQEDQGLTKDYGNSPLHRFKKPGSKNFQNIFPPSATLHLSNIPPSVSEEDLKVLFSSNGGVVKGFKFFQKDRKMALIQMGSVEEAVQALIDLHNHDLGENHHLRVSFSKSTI

What was measured:
[1] = target: PTBP1 (polypyrimidine tract binding protein-1) (human (endogenous in HEK293T/17)) (UniProt P26599); assay: cross-linking + co-IP; cells incubated with 0.6 mM BS3 for 30 min, quenched with 1 M Tris-HCl (pH 7.5); lysate (nucleus and cytoplasm) immunoprecipitated with anti-PTBP1 or anti-HNRNPK antibody as for RIP, proteins dissociated from beads in Laemmli buffer, Western blotting
[2] = target: HNRNPK (heterogeneous nuclear ribonucleoprotein K) (human (endogenous in HEK293T/17)) (UniProt P61978); assay: as above

binding [1]	binding [2]	Substance
binds		HNRNPK (heterogeneous nuclear ribonucleoprotein K) (from UniProt P61978 1-463)
	binds	PTBP1 (polypyrimidine tract binding protein-1) (from UniProt P26599 1-557)
